Source: publication PMC11426239
These are yes or no findings as the source states them, for the method shown. Binding seen in cells or lysates may run through a third protein. Some binding calls cover weakened binding; strength is not graded here.

The chains behind the UniProt entries cited, without tags or fusion partners. Where a name states a change or a piece, a line headed by the entry shows the natural chain unless it says otherwise. Residues count along the entry.
UniProt P84022: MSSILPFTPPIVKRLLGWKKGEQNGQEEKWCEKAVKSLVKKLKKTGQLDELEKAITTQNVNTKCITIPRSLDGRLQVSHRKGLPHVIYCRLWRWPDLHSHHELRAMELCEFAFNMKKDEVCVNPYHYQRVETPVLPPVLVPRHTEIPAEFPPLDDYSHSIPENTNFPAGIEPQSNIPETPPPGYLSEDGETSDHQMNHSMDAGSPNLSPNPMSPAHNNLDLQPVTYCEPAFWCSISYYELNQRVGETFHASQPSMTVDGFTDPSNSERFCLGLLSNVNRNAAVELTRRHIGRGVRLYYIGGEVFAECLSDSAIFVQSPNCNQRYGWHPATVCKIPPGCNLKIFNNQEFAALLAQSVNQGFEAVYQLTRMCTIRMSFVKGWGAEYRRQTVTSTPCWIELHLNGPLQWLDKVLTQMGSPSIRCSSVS
UniProt Q93009: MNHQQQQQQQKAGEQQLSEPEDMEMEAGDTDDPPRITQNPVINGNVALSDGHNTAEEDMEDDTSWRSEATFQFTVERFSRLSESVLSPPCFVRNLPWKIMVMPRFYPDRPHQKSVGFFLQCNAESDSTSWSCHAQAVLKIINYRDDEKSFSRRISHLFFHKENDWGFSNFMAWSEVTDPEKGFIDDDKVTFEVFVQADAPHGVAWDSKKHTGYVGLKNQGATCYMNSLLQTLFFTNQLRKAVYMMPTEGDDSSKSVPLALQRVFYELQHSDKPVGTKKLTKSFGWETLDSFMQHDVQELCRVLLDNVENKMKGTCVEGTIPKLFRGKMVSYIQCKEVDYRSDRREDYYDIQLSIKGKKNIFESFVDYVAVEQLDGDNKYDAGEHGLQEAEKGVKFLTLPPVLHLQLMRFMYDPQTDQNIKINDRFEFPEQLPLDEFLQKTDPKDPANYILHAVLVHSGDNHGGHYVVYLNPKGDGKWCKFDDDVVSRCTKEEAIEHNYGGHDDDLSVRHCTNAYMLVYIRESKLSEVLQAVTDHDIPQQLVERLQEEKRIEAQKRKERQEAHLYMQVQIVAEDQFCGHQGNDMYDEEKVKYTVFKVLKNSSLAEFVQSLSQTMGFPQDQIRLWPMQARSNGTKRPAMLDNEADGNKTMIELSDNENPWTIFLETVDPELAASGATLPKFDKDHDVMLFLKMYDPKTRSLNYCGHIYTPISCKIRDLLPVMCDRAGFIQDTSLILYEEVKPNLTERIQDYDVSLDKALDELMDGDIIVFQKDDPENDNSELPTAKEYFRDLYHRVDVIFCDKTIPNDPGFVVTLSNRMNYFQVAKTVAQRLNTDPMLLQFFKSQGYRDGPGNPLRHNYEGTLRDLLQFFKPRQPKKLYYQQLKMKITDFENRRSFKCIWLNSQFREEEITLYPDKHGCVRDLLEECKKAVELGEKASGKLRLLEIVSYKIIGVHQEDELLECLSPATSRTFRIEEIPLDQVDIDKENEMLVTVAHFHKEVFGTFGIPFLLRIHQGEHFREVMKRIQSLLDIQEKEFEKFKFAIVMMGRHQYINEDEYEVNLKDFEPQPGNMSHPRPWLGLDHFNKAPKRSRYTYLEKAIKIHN
USP7 mutant containing amino acids 561-1102 (UBL domain): residues 561-1102 of Q93009
UniProt Q4VSI4: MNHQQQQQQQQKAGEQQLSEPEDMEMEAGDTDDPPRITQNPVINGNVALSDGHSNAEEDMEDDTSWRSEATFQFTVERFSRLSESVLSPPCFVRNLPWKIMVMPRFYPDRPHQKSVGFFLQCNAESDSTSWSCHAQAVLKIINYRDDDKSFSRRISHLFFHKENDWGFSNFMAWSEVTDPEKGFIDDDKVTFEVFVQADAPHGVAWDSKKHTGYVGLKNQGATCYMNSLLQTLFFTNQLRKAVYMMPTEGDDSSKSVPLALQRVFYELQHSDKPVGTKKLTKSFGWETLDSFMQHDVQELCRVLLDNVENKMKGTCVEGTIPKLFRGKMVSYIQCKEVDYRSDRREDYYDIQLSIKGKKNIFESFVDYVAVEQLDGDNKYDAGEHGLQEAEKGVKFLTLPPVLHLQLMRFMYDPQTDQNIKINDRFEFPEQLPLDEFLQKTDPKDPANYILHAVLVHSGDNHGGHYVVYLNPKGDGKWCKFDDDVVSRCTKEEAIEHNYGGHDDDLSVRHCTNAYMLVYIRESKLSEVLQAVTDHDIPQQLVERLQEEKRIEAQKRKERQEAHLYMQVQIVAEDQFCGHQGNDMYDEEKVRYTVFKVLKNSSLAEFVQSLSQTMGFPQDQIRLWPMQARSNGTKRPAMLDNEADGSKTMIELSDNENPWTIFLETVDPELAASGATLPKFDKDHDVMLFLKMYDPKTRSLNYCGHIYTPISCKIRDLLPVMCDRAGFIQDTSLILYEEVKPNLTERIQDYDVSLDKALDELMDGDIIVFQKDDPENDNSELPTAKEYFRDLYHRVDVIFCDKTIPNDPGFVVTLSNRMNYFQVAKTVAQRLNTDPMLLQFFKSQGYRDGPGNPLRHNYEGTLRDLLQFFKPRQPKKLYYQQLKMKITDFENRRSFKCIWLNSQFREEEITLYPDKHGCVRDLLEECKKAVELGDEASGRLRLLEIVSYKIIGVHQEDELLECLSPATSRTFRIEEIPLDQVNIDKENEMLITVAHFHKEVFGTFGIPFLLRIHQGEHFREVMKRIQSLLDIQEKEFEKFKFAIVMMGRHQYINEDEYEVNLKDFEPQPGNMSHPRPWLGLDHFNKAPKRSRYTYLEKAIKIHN
UniProt P84025: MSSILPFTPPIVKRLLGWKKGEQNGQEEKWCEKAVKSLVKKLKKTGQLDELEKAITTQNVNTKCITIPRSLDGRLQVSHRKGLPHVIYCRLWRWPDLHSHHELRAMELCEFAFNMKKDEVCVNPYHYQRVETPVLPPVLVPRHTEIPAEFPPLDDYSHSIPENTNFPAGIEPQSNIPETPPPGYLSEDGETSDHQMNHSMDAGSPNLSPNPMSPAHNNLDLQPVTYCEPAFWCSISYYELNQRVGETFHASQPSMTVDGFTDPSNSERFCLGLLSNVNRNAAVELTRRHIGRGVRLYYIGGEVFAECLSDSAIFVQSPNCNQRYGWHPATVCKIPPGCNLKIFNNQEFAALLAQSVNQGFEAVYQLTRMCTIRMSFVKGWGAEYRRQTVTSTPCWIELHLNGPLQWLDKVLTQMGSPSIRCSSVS

Experiments:
Myc-SMAD3 = Myc-SMAD3 (UniProt P84022); experiment: co-IP; 293T cells co-transfected with Flag-USP7 or Flag-USP7-C223S and Myc-SMAD3; SMAD3 immunoprecipitated by anti-Myc antibody
Flag-USP7 = Flag-USP7 (UniProt Q93009); experiment: co-IP; 293T cells co-transfected with Flag-USP7 (wild type or domain mutants) and Myc-SMAD3; USP7 immunoprecipitated by anti-Flag antibody
[1] = target: USP7 mutant containing amino acids 561-1102 (UBL domain) (UniProt Q93009); experiment: as above
[2] = target: USP7, endogenous in primary cardiac microvascular endothelial cells (CMECs) (rat (endogenous in CMECs)) (UniProt Q4VSI4); experiment: co-IP; CMECs treated with or without TGFβ1; endogenous USP7 immunoprecipitated by anti-USP7 antibody; IgG control
[3] = target: SMAD3, endogenous in primary cardiac microvascular endothelial cells (CMECs) (rat (endogenous in CMECs)) (UniProt P84025); experiment: co-IP; CMECs treated with or without TGFβ1; endogenous SMAD3 immunoprecipitated by anti-SMAD3 antibody; IgG control

## Flag-USP7 (from UniProt Q93009 1-1102) (enzyme)
Myc-SMAD3
  binding: binds

## Flag-USP7-C223S (from UniProt Q93009 1-1102) (enzyme)
Myc-SMAD3
  binding: binds

## Myc-SMAD3 (from UniProt P84022 1-425)
Flag-USP7
  binding: binds
[1]
  binding: binds

## SMAD3, endogenous in primary cardiac microvascular endothelial cells (CMECs) (from UniProt P84025 1-425)
[2]
  binding: binds

## USP7, endogenous in primary cardiac microvascular endothelial cells (CMECs) (from UniProt Q4VSI4 1-1103) (enzyme)
[3]
  binding: binds
